Measured values from patent US20180162952A1.

biological target: cynomolgus PTK7 (cynomolgus); assay: ForteBio, concentration series of recombinant monomeric antigen

Binder | binding
SC6.2.35 (antibody, V domains shown) VH: QVQMQQSGAELMKPGASVKLSCKATGYTFTGYWIEWVKQRPGHGLEWIGEILPGSGRSNSNEKFKGKATFTADTSSNTAYMQLSSLTTEDSAIYYCARGKLSWGQGTLVTVSA VL: DIVLTQSPASLAVSLGQRATISCRASESVDSFGNSFMHWYQQKPGQPPKLLIYAASNLGSGVPARFSGSGSGTDFSLNIHPVEEDDSAMYFCQQSKEVPRTFGGGSRLEIKR | binds
SC6.21 (antibody, V domains shown) VH: DVQLQESGPGLVKPSQTLSLTCSVPDYSITSDYHWHWIRQFPGNKLEWMGYISSRGSTNYNPSLKNRISITHDTSENQFFLKLTSVTTEDSATYYCAGLSQLALDYWGQGTTLTVSS VL: DIVMSQSPSSLAVSVGEKVTLSCKSSQSLLYSSTQNNYLAWYQQTPGQSPKLLIYWASTRESGVPDRFTGSGSGTDFTLTISSVKAEDLAVYYCQQYYSYPWTFGGGTKLEIK | binds
SC6.23 (antibody, V domains shown) VH: QVTLKESGPGILKPSQTLSLTCSFSGFSLSTSNMGVGWIRQPSGKGLEWLAHIWWDDDKYYNPSLKSQLTISKDTSRNQVFLKITSVDTEDTATYYCVRSNYGYAWFAYWGQGTLVTVSA VL: DIKMTQSPSSMYASLGERVTITCKASQDIYPYLNWFQQKPGKSPKTLIYRTNRLLDGVPSRFSGSGSGQDYSLTISSLDYEDMGIYYCLQYDEFPLTFGAGTKLELK | binds
SC6.24 (antibody, V domains shown) VH: QVQLQQSGPEVVRPGVSVKISCKGSGYTFTDYAVHWVKLSHAKSLEWIGVISTYNDYTYNNQDFKGKATMTVDKSSSTAYMELARLTSEDSAIYYCARGNSYFYALDYWGQGTSVTVSS VL: DIVLTQSPASLAVSLGQRATISCRASESVDSYGKSFMHWYQQRPGQPPKLLIYRASNLESGIPARFSGSGSRTDFTLTINPVEADDVATYYCQQSNEDPWTFGGGTKLEIK | binds
SC6.41 (antibody, V domains shown) VH: EVQLQQSGAESVRSGASVKLSCTASGLNIKDYYMHWVNLRPEQGLEWIGWIDPENGDTEYAPEFQGKATMTADTSSNTAYLQLSSLTSEDTAVYYCNACNYGSAYGYWGQGTTLTVSS VL: DIVLTQATPSVPVTPGESVSISCRSSKSLLHTKGDTYLYWFLQRPGQSPQLLIYRMSNLASGVPDRFSGSGSGTVFTLRISRVEAEDVGVYYCMQHLEYPFTFGSGTKLEIKR | binds
SC6.58 (antibody, V domains shown) VH: EVKLLESGGGLVQPGGSLKLSCAASGFDFSRYWMSWVRQAPGKGLEWIGDLNPDSSAINYTPSLKDKFIISRDNAKNTLYLQMSKVRSEDTALYYCTLITTLVPYTMDFWGQGTSVTVSS VL: ETTVTQSPASLSMAIGEKVTIRCITNTDIDDDMNWYQQKPGEPPKLLISEGNGLRPGVPSRFSSSGYGTDFVFTIENMLSEDVADYYCLQSDNLPLTFGSGTKLEIK | binds

Results are given in words; binding and its absence hold for the method and conditions named. A result given as binding can be weak or reduced; the word gives no strength.
